Assay results reported in the supplement of paper PMC11150407.
The campaign covered roughly 3,000 compounds. About 45 (2%) showed an effect of 50% or more. The list shows a part of the results.

These molecules were tested on MOLM1 and UCSD/AML1 (averaged) (assay: cell viability relative to DMSO control (POC); higher = less growth inhibition). Details: 1 µM; 72 h.
Method: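 Primary viability screen in the 3q26 EVI1-high AML cell lines MOLM1 and UCSD/AML1, compounds at 1 uM for 72 h. ATP CellTiter-Glo read-out given as percent viable over DMSO control (POC), averaged over duplicates. This mapping covers the TimTec NDL-3000 natural derivative library, whose compounds are identified by TimTec catalogue codes (ST...).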

Structure (SMILES)	cell viability
CCc1ccccc1NC(=O)CSc1nc2c(=O)[nH]cnc2n1C	89.3%
CCOc1ccc(-c2oc3cc(C)ccc3c(=O)c2O)cc1	106%
O=C(O)C(=O)Cc1ccc([N+](=O)[O-])cc1	92.6%
COc1ccc(NC(=O)CSc2nc3ncnc(N)c3[nH]2)cc1	111%
COc1ccc2c(c1OC)C(=O)N1C(C(=O)O)Cc3c([nH]c4ccccc34)C21 (configuration not stated)	87%
CC(=O)n1c(=O)oc2ccccc21	90.1%
C/C(=N\NC(=O)c1nonc1N)c1c[nH]c2ccccc12	97.4%
COc1cc(C(=O)Nc2ccc(C(=O)c3cccs3)cc2)cc(OC)c1OC	99.7%
O=C1CC(n2c(=O)oc3ccccc32)C2COC1O2 (configuration not stated)	14.7%
COc1cc2c(c(NC(=O)c3ccoc3C)c1OC)C(=O)OC2	103%
COc1cc2c(c(NC(=O)CCC3CCCCC3)c1OC)C(=O)OC2	97.7%
COc1ccc(Br)cc1/C=C/C(=O)O	95.6%
COc1ccc2oc(=O)cc(CN3CCN(Cc4ccc(C)cc4)CC3)c2c1	86.3%
COC(=O)C1CC23CCCN4CCC5(c6ccccc6N(C(C)=O)C15CC2)C43 (configuration not stated)	89.7%
COc1ccc(C(=O)Nc2ccc(Br)c(C)c2)cc1OC	84.6%
COc1cc2c(cc1OC)C(c1ccc(N(C)C)cc1)NCC2 (configuration not stated)	81.2%
CCOc1ccc2oc(=O)cc(CN3CCN(Cc4nc(-c5ccc(Cl)cc5)oc4C)CC3)c2c1	93%
CCC(Sc1nc2c(=O)[nH]cnc2n1C)C(=O)Nc1cccc(Cl)c1 (configuration not stated)	97.9%
NC(CCSCC(N)C(=O)O)C(=O)O (configuration not stated)	99.1%
O=C(/C=C/c1ccccc1Cl)c1ccc(OC(=O)c2ccc([N+](=O)[O-])cc2)cc1	85.3%
O=C(N/N=C/c1ccc(/C=N/NC(=O)c2cc(O)cc(O)c2)cc1)c1cc(O)cc(O)c1	93.6%
CCN(CC)C(=O)c1ccc(OCC(=O)N2CCc3ccccc32)c(OC)c1	101%
CCCCN(C(=O)c1cc(OC)c(OC)c(OC)c1)C1=CC2CCC(C1)N2C (configuration not stated)	105%
COc1ccc(C(=O)Nc2nc(-c3ccc4c(c3)OCCO4)cs2)cc1OC	101%
CCSCCn1c(C)c(C(=O)OCc2ccccc2)c2cc(O)c3ccccc3c21	90.3%
COc1ccc2[nH]c(C)c(CCNC(=O)c3cc([N+](=O)[O-])ccc3Cl)c2c1	101%

Given field by field: part of the list above.
O=C(N/N=C/c1ccc(/C=N/NC(=O)c2cc(O)cc(O)c2)cc1)c1cc(O)cc(O)c1
  cell viability: 93.6%
COc1ccc(C(=O)Nc2nc(-c3ccc4c(c3)OCCO4)cs2)cc1OC
  cell viability: 101%

Continued:

Structure (SMILES)	cell viability
C#CCOC(=O)C1(C)CCC2(C)CCC3(C)C(=CC(=O)C4C5(C)CCC(OC(C)=O)C(C)(C)C5CCC43C)C2C1 (configuration not stated)	102%
Cc1cc(NC(=O)c2cc3ccccc3o2)ccc1-c1cc2ccccc2oc1=O	86.6%
CC(C)Cc1ccc(C(C)C(=O)NCCc2c[nH]c3ccccc23)cc1 (configuration not stated)	88.1%
O=C(c1nc(-c2ccccc2)n(-c2ccccc2)n1)N1CCc2ccccc2C1	99.2%
CC1(C)CC(=O)C2=C(C1)N(c1ccccc1)C1=C(C(=O)CC(C)(C)C1)C2c1ccc(O)cc1	106%
COc1cc(Cc2nccc3cc(OC)c(OC)cc23)c(/C(C)=N/O)cc1OC	96.7%
CC1CCc2nc3sc(C(=O)N4CCC[C@H]4C(=O)O)c(N)c3cc2C1 (some centres not stated)	107%
COc1cc(CN(C)S(=O)(=O)c2cc(N3CCCC3=O)ccc2C)cc(OC)c1OC	89.8%
COc1cc(/C=N/NC(=O)CCC(=O)Nc2ccc(C)c(C)c2)cc(OC)c1OC	104%
COc1cccc(NC(=O)c2ccc3c(c2)OCO3)c1	81.2%
Cc1ccccc1-c1cc(=O)c2cc(Br)ccc2o1	106%
COc1ccc(C2=NOC(=O)/C2=C\c2cccc([N+](=O)[O-])c2O)cc1OC	97.4%
CCOC(=O)C(Cc1c[nH]c2ccccc12)NS(=O)(=O)c1ccc(C)cc1 (configuration not stated)	91.9%
CCOC(=O)C1=C(N)Oc2c(oc(CO)cc2=O)C1c1ccc(Cl)cc1Cl (configuration not stated)	107%
O=C(c1cc(=O)[nH]c2ccccc12)N1CCc2ccccc2C1	98.5%
Cc1ccc(NC(=O)CSc2nc3c(=O)[nH]cnc3n2-c2ccccc2)c(C)c1	99.2%
C=C(C)C1CCC(C)CC1OC(C)=O (configuration not stated)	96.6%
COc1ccc(/C=C/C(=O)/C=C/c2ccc(OC)cc2OC)c(OC)c1	92%
CC(=O)/C=C(\C)NC(C)C(=O)O (configuration not stated)	102%
NC(=O)Cc1cc2ccccc2n1Cc1ccccc1	97.6%
Cc1cc(=O)oc2cc(OCc3ccccc3F)ccc12	98.2%
CCOC(=O)c1c(C)n(CCOc2cccc(Cl)c2Cl)c2ccc(O)cc12	91.3%
CC(=O)C1=C(O)C(=O)N(CCc2c[nH]c3ccccc23)C1c1ccc(Cl)cc1 (configuration not stated)	98.8%
O=c1oc2ccccc2cc1-c1ccccc1Cl	110%
COc1ccc(C=O)cc1CSc1nc2ccccc2[nH]1	92.5%
O=C1c2c(O)ccc([N+](=O)[O-])c2C(=O)c2c([N+](=O)[O-])ccc(O)c21	79.6%

Compounds listed so far containing a thiophene ring, fused or not:
Structure (SMILES)	cell viability
COc1cc(C(=O)Nc2ccc(C(=O)c3cccs3)cc2)cc(OC)c1OC	99.7%
CC1CCc2nc3sc(C(=O)N4CCC[C@H]4C(=O)O)c(N)c3cc2C1 (some centres not stated)	107%
